These are yes or no findings as the source states them, for the method shown. Some entries that bind do so weakly or less than the wild type.
Columns and labels:
[1] = molecular target: CAMPK6 BiFC construct (CAMPK6 fused to a split fluorescent protein fragment) (UniProt Q39026); test: BiFC in Arabidopsis mesophyll protoplasts with MG-132
[2] = molecular target: CAMPK6 BiFC construct (CAMPK6 fused to a split fluorescent protein fragment) (UniProt Q39026); test: BiFC in Arabidopsis mesophyll protoplasts

Sequences of proteins named here, by UniProt entry; tags and fusion partners are left off. A change or cut given only in a name is not applied to a line headed by its entry. A line that says so, or that is headed by a name, gives the form on record, which may keep a tag or linker.
UniProt Q39026: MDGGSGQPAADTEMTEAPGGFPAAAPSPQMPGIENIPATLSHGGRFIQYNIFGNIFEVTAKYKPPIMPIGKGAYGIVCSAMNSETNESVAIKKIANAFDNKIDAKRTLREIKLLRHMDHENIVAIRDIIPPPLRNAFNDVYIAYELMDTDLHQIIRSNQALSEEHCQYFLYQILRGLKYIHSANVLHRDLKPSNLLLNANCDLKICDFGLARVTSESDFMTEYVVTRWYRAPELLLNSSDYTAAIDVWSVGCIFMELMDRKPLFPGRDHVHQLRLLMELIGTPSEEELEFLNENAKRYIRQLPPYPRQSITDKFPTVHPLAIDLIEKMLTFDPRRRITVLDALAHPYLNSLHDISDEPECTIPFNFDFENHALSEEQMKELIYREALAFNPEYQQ
CAMPK6 BiFC construct (CAMPK6 fused to a split fluorescent protein fragment) (Q39026, form named): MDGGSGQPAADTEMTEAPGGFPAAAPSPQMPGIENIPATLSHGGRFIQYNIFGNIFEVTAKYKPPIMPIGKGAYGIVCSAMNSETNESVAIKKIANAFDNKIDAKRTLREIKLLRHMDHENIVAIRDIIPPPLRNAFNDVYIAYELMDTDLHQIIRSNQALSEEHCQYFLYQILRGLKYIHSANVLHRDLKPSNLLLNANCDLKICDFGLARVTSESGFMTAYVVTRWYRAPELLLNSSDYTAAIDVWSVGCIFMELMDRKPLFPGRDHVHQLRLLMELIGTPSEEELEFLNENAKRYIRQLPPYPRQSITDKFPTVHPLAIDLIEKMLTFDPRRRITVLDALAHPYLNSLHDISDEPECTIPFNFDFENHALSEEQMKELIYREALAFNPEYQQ
UniProt Q9LXV2: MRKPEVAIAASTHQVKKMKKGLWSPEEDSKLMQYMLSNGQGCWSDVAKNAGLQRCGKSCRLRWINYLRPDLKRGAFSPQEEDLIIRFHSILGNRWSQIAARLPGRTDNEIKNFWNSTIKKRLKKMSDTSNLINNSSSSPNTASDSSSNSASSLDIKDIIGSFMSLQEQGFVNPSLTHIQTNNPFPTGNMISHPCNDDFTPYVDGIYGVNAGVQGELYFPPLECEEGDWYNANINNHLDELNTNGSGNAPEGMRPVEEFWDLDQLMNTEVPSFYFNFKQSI

## MYB46 BiFC construct (MYB46 fused to a split fluorescent protein fragment) (from UniProt Q9LXV2 1-280)
[1]
  binding: binds
[2]
  binding: binds

From patent publication US20220340924A1
